Data: PMC2861645
These are yes or no findings as the source states them, for the method shown. Binding seen in cells or lysates may run through a third protein. A yes stands for co-enrichment or nearness to the bait. Other partners may have been found.

The chains behind the UniProt entries cited, without tags or fusion partners.
UniProt P09874: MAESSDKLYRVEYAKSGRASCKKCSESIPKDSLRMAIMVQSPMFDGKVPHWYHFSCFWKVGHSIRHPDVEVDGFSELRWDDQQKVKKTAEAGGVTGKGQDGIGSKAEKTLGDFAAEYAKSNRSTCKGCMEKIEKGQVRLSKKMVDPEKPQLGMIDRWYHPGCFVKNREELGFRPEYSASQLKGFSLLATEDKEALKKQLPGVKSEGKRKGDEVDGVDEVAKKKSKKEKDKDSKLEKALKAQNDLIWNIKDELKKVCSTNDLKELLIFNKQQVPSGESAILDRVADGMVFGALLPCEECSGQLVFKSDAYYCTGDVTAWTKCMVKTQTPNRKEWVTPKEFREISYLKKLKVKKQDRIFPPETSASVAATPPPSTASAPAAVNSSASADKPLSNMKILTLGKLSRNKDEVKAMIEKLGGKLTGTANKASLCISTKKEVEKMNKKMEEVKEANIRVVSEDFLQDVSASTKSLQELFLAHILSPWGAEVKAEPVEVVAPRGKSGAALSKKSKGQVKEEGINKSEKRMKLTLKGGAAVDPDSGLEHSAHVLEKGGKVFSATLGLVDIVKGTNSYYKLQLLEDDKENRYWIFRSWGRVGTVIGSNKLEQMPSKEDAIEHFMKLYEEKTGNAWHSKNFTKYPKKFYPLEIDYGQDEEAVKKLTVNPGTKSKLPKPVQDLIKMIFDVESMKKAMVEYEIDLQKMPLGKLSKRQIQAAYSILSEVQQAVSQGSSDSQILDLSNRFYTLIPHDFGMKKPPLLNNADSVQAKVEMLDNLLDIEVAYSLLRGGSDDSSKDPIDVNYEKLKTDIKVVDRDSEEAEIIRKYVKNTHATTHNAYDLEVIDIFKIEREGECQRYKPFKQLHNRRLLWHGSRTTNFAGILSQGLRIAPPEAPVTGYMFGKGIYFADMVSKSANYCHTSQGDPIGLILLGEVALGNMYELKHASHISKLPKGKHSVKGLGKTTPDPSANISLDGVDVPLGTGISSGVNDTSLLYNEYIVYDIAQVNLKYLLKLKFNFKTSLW
UniProt Q9UGN5: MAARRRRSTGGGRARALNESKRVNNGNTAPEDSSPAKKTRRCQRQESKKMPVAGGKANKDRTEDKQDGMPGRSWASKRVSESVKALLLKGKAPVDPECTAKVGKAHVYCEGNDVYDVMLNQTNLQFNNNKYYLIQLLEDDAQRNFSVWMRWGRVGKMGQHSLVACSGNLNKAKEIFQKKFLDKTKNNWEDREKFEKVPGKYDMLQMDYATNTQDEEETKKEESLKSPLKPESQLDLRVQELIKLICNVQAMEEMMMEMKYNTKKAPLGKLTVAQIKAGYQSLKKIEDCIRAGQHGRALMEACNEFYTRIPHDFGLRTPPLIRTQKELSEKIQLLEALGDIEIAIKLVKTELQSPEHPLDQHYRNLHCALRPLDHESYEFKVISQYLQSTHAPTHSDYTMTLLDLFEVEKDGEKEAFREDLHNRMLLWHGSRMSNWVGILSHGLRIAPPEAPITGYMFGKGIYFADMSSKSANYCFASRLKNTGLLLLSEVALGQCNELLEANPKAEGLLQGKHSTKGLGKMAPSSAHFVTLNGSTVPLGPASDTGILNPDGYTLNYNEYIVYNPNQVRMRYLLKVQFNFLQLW
UniProt Q86W56: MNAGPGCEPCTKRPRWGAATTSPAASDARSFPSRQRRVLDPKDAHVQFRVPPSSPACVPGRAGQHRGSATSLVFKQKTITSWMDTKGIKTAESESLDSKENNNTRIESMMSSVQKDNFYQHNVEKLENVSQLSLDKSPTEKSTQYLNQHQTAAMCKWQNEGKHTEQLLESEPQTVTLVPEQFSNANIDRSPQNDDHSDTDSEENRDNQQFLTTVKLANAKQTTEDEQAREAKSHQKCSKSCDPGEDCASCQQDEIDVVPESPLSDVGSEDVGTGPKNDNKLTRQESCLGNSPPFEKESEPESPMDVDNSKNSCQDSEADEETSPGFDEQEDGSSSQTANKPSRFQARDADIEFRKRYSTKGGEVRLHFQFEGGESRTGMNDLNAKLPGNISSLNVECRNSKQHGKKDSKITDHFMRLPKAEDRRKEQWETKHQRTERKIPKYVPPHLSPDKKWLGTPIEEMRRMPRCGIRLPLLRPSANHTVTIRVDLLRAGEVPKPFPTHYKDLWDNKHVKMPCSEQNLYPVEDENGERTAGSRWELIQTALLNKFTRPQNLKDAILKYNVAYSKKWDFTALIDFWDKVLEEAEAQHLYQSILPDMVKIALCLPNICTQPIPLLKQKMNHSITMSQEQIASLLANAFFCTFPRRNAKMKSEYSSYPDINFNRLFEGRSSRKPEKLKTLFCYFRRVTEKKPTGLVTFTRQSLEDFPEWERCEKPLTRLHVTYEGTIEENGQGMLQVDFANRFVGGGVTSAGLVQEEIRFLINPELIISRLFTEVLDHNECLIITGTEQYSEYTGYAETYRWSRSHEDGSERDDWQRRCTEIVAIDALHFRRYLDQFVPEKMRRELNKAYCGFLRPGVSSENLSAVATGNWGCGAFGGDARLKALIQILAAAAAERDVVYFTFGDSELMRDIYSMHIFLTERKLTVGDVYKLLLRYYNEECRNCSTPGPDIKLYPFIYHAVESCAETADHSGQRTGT

Tests used:
[1] = molecular target: Poly(ADP-ribose) polymerase 1 (PARP-1) (human (endogenous in SK-N-SH or HeLa)) (UniProt P09874); assay: affinity purification with mass spectrometry; PARP-1 immunoprecipitated from human cell lysate (SK-N-SH or HeLa; phosphate or Tris lysis buffer pH 8.0, 150 mM NaCl, 1% NP-40) with monoclonal F1-23 on protein G magnetic beads, 2 h at 4°C; control normal mouse IgG; SDS-PAGE, in-gel trypsin digestion, LC-MS/MS; each hit in at least two pull-downs
[2] = molecular target: FLAG-PARP-2 (UniProt Q9UGN5); assay: affinity purification with mass spectrometry; transiently overexpressed FLAG-PARP-2 or FLAG-PARG immunoprecipitated from human cell lysate (phosphate or Tris lysis buffer pH 8.0, 150 mM NaCl, 1% NP-40) with anti-FLAG M2 on protein G magnetic beads, 2 h at 4°C; control normal mouse IgG; SDS-PAGE, in-gel trypsin digestion, LC-MS/MS; each hit in at least two pull-downs
[3] = molecular target: FLAG-PARG (UniProt Q86W56); assay: as above

binding [1]: binds | binding [2]: binds | binding [3]: binds
B1: hnRNP M (protein, UniProt P52272 1-730)
chain: MAAGVEAAAEVAATEIKMEEESGAPGVPSGNGAPGPKGEGERPAQNEKRKEKNIKRGGNRFEPYANPTKRYRAFITNIPFDVKWQSLKDLVKEKVGEVTYVELLMDAEGKSRGCAVVEFKMEESMKKAAEVLNKHSLSGRPLKVKEDPDGEHARRAMQKVMATTGGMGMGPGGPGMITIPPSILNNPNIPNEIIHALQAGRLGSTVFVANLDYKVGWKKLKEVFSMAGVVVRADILEDKDGKSRGIGTVTFEQSIEAVQAISMFNGQLLFDRPMHVKMDERALPKGDFFPPERPQQLPHGLGGIGMGLGPGGQPIDANHLNKGIGMGNIGPAGMGMEGIGFGINKMGGMEGPFGGGMENMGRFGSGMNMGRINEILSNALKRGEIIAKQGGGGGGGSVPGIERMGPGIDRLGGAGMERMGAGLGHGMDRVGSEIERMGLVMDRMGSVERMGSGIERMGPLGLDHMASSIERMGQTMERIGSGVERMGAGMGFGLERMAAPIDRVGQTIERMGSGVERMGPAIERMGLSMERMVPAGMGAGLERMGPVMDRMATGLERMGANNLERMGLERMGANSLERMGLERMGANSLERMGPAMGPALGAGIERMGLAMGGGGGASFDRAIEMERGNFGGSFAGSFGGAGGHAPGVARKACQIFVRNLPFDFTWKMLKDKFNECGHVLYADIKMENGKSKGCGVVKFESPEVAERACRMMNGMKLSGREIDVRIDRNA
